The supplement of paper PMC10849652
The list shows a part of the results.

Chains of the proteins cited; added tags and fusions are not shown. Lines headed by an entry give the natural chain unless they say otherwise; changes in a name come on top.
UniProt P46060: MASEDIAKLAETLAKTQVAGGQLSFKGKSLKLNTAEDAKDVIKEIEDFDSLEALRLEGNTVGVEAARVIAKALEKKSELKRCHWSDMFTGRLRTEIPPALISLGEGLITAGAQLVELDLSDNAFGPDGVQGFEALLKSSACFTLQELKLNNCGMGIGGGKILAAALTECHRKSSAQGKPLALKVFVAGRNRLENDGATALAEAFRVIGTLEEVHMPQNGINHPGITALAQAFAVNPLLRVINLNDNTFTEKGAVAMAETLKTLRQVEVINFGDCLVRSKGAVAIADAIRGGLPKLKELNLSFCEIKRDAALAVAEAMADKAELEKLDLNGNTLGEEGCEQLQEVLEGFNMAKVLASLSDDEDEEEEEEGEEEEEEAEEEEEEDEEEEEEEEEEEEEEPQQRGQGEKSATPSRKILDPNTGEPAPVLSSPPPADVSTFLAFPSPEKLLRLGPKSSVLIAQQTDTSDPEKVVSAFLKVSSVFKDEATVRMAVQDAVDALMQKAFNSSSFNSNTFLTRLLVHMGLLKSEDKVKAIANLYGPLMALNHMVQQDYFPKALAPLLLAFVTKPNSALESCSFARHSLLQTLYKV
UniProt Q9NTZ6: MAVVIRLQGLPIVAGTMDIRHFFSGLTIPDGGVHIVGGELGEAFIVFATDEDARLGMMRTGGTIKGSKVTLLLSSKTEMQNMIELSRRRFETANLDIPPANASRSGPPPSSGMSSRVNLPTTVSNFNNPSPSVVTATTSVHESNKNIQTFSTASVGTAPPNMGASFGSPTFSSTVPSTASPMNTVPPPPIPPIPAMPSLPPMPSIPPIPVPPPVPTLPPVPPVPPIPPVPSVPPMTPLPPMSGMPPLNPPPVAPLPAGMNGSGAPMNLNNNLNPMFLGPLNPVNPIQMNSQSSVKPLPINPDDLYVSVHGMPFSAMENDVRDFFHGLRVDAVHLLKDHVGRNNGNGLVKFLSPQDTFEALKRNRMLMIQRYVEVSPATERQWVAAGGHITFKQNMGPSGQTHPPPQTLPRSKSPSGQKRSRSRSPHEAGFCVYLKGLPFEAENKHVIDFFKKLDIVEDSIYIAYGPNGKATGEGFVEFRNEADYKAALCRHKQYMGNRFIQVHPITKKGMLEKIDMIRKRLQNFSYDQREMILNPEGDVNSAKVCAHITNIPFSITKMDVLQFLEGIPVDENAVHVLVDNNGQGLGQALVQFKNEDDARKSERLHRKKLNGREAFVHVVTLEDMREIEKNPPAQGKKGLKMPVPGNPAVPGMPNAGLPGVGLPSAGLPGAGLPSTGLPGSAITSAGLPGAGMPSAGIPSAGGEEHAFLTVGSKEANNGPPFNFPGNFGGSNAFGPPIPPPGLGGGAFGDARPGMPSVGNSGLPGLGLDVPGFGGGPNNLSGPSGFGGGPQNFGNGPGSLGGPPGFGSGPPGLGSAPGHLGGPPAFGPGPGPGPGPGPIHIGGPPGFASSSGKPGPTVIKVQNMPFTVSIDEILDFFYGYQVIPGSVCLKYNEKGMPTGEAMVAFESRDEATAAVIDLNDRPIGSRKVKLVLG
UniProt Q5T8P6: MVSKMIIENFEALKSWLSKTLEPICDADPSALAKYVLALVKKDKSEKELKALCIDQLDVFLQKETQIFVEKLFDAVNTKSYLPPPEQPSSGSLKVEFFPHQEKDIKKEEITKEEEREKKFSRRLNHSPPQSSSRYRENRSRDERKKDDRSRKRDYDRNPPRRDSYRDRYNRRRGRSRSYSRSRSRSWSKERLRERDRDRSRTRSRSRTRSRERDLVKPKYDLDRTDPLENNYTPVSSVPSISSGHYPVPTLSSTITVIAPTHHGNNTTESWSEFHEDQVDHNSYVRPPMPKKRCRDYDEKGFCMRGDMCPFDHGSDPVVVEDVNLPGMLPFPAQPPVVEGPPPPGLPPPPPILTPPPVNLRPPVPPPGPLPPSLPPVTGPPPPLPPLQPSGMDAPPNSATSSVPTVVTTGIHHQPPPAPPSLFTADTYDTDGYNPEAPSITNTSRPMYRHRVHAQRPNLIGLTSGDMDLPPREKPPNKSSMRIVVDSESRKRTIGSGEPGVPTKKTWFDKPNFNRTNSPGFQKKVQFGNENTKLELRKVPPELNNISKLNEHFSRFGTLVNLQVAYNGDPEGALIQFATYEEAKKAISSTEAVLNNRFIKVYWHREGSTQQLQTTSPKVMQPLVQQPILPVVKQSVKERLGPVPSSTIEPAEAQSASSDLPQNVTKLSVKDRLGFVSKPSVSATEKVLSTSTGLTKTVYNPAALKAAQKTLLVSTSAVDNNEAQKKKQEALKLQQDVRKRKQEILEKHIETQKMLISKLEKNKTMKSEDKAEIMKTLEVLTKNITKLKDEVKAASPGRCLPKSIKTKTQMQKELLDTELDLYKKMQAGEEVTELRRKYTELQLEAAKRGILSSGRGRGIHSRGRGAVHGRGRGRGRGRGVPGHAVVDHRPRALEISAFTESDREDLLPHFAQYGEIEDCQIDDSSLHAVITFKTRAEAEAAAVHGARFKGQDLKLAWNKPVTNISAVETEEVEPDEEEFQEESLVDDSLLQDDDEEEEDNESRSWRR
UniProt Q15907: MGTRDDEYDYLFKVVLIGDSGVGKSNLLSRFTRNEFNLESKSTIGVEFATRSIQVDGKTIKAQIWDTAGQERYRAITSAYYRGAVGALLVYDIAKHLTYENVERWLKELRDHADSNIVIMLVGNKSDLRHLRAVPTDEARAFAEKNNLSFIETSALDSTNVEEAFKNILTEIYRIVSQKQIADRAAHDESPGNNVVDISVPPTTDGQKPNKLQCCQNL
UniProt P78406: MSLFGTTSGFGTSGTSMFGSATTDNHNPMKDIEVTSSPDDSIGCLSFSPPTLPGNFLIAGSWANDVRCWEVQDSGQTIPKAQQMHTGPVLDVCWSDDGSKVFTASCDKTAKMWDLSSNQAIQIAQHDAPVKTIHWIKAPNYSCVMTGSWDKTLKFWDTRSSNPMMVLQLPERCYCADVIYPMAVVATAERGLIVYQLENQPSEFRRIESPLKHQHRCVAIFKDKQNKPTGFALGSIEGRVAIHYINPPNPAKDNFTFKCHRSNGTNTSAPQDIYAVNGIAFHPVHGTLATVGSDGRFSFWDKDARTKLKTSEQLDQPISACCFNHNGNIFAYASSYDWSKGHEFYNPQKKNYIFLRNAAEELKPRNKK
UniProt Q8WUD1: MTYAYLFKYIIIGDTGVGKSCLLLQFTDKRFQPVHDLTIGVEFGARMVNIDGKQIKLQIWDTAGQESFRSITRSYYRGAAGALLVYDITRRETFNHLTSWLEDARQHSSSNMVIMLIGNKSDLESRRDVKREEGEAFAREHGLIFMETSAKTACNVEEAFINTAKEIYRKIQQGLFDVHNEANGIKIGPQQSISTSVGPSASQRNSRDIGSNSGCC
UniProt Q92878: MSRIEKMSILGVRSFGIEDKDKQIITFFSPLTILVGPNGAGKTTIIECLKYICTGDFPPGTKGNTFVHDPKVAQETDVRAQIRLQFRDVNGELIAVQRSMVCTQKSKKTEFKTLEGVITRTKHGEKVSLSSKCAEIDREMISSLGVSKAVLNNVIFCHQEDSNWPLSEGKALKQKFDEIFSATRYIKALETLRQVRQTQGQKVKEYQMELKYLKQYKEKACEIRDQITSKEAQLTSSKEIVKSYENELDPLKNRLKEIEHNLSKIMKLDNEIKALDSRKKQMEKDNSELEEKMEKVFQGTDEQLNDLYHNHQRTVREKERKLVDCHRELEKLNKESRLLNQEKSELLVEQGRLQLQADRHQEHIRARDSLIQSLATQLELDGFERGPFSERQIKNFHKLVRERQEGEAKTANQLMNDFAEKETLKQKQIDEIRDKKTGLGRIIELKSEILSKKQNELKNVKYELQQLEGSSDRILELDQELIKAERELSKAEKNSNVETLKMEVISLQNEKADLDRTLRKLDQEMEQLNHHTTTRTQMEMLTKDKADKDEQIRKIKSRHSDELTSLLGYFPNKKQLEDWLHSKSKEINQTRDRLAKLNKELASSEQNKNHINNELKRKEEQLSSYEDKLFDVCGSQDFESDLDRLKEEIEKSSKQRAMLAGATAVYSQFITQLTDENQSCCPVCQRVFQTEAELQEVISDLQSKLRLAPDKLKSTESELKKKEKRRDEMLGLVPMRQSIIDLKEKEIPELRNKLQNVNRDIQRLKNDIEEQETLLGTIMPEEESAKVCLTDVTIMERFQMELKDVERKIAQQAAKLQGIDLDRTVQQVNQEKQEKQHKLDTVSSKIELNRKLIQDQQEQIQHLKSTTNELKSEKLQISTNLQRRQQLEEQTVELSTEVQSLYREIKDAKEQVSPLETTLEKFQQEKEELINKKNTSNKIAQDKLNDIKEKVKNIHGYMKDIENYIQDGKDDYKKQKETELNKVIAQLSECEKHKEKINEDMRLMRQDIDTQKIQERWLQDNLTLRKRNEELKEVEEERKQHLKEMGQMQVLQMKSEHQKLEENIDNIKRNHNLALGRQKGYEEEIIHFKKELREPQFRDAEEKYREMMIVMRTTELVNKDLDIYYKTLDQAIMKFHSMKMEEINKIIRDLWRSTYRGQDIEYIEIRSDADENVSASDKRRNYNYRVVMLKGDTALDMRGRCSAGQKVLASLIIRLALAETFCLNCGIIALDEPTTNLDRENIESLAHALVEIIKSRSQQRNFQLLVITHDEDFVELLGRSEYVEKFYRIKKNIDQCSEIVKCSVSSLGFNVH
UniProt Q9NW64: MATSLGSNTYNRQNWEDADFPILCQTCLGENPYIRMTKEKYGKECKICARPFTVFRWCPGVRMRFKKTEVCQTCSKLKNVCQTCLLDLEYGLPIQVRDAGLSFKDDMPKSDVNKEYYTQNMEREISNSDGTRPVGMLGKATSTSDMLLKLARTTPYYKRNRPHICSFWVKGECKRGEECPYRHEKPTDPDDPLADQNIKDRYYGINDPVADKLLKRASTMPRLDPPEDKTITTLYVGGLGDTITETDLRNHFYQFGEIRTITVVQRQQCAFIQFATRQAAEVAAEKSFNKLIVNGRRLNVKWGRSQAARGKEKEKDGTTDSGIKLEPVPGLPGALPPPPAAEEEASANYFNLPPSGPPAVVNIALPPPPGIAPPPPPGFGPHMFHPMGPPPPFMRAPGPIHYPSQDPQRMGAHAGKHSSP
UniProt Q5T160: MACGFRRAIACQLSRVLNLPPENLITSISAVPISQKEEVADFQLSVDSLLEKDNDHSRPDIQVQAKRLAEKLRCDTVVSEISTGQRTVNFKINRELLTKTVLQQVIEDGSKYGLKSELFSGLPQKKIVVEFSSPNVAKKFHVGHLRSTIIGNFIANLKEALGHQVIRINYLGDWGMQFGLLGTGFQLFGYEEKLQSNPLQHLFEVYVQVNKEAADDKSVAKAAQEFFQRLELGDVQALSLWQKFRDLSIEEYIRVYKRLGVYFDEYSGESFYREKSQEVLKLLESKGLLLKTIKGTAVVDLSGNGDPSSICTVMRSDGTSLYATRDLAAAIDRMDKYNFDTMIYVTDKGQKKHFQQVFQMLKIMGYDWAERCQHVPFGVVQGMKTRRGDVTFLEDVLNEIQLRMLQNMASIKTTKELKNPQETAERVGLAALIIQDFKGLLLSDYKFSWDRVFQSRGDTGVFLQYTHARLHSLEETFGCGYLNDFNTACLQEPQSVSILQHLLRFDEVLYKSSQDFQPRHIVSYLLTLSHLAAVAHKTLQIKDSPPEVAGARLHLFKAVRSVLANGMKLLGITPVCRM
UniProt Q9BTL3: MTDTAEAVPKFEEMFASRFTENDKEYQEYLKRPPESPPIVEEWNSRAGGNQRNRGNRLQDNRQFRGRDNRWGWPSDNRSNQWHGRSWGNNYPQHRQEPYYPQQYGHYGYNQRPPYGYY
UniProt Q96I25: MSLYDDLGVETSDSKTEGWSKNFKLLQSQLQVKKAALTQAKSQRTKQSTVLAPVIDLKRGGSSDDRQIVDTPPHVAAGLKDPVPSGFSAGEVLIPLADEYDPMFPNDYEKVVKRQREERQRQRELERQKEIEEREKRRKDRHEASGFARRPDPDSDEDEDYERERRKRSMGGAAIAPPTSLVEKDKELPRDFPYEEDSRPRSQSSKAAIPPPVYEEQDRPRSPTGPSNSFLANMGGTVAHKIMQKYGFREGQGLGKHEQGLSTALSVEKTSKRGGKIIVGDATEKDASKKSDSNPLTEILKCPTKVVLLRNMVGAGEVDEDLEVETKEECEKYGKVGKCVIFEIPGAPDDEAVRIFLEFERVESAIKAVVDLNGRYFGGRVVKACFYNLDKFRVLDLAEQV
UniProt P43487, whole entry, looked up: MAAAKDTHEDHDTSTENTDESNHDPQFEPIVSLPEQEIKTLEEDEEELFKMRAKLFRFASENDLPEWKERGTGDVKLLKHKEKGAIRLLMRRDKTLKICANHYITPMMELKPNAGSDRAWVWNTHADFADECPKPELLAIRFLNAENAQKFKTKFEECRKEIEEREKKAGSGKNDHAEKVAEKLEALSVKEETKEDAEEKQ
UniProt P61018: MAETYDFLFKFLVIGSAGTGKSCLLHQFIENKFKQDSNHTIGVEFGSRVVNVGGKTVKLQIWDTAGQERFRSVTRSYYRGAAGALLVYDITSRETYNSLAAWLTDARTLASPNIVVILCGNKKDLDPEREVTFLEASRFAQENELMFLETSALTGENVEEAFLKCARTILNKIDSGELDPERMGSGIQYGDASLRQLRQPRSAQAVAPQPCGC

Assays:
Test in all cases: log2 fold change, soluble protein after heating vs DMSO (PISA); higher = thermal stabilisation; K562 cells, 10 uM, 30 min; active = over 0.2 and 3.5 SD of the protein, either way, in both replicates (recomputed)
[1] = compound: CC1=C(C=C(C=C1)NC(=O)C2=CC(=CC=C2)C(C)(C)C#N)NC3=CC4=C(C=C3)N=CN(C4=O)C
In short: (§1)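 Soluble protein was quantified by TMTpro 16plex LC-MS/MS after channel sums were equalised. It was obtained as the supernatant after 21,000xg for 90 min from pooled aliquots of K562 cells (2×10^6 cells/mL, 10 μM compound, 30 min) heated for 3 min across 48°C-58°C and extracted in PBS with 0.5% NP-40 at 4°C. Thermal stability values are relative to control samples and come from duplicates. They are given as log2 fold changes.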

[2] = compound: CC1=C(C=C(C=C1)NC(=O)C2=CC(=CC=C2)N(C)C)NC(=O)C3=CC=C(C=C3)O
In short: as §1

[3] = compound: CC1=CC=C(C=C1)SC2=C3C=C(SC3=CN=C2)C(=O)N
In short: as §1

[4] = compound: CC1=NC(=CC=C1)C2=C(N=C(N2)C(C)(C)C)C3=CC4=NC=CN=C4C=C3
In short: as §1

[5] = compound: CCCCN(Cc1ccc(C(=O)NO)cc1)C(=O)Nc1ccccc1 [Nexturastat A]
In short: as §1

[6] = compound: CCCS(=O)(=O)Nc1ccc(F)c(C(=O)c2c[nH]c3ncc(-c4ccc(Cl)cc4)cc23)c1F [vemurafenib]
In short: as §1

[7] = compound: CCCS(=O)(=O)Nc1ccc(F)c(C(=O)c2c[nH]c3ncc(Cl)cc23)c1F
In short: as §1

[8] = compound: CCCc1cc(C)[nH]c(=O)c1CNC(=O)c1cc(-c2ccnc(N3CCN(C)CC3)c2)cc2c1cnn2C(C)C
In short: as §1

[9] = compound: CCN(CC)Cc1ccc2cc(COC(=O)Nc3ccc(C(=O)NO)cc3)ccc2c1 [givinostat]
In short: as §1

[10] = compound: CCN(CCCOc1ccc2c(Nc3cc(CC(=O)Nc4cccc(F)c4)[nH]n3)ncnc2c1)CCOP(=O)(O)O [barasertib]
In short: as §1

[11] = compound: CC[C@@H]1C(=O)N(C)c2cnc(Nc3ccc(C(=O)NC4CCN(C)CC4)cc3OC)nc2N1C1CCCC1
In short: as §1

[12] = compound: CC[C@@H]1C(=O)N(C)c2cnc(Nc3ccc(C(=O)N[C@H]4CC[C@H](N5CCN(CC6CC6)CC5)CC4)cc3OC)nc2N1C(C)C [volasertib]
In short: as §1

[13] = compound: CC[C@H](C)N1C=C(C2=C(C=C(C=C21)C3=CN=C(C=C3)N4CCNCC4)C(=O)NCC5=C(C=C(NC5=O)C)C)C
In short: as §1

[14] = compound: CC[C@H](C)[C@@H](C(=O)N[C@@H]([C@@H](C)O)C(=O)N[C@@H](CC(C)C)C(=O)[C@]1(CO1)C)NC(=O)[C@H]([C@@H](C)CC)N(C)C(=O)C [epoxomicin]
In short: as §1

[15] = compound: CCn1c(C(=O)N(C2CC2)C2CC2)cc2c3c(ncn3C)c(Nc3cc(C)n(C)n3)nc21
In short: as §1

[16] = compound: CCn1cc(-c2ccnc3[nH]c(-c4cccc(CN(C)C)c4)cc23)c(-c2ccc(NC(=O)N(C)C)cc2)n1
In short: as §1

[17] = compound: CN(C)CC(=O)Nc1ccc2[nH]c(=O)c3ccccc3c2c1
In short: as §1

[18] = compound: CN(CCOC1=CC=C(C=C1)C[C@H]2C(=O)NC(=O)S2)C3=CC=CC=N3 (racemic) [rosiglitazone]
In short: as §1

[19] = compound: CN1C2=C(C3=C1C(=O)N(N=C3)CC4=CC(=CC=C4)N)SC(=C2)S(=O)C
In short: as §1

[20] = compound: CN1CCC(CNc2ccc3ncc(-c4cccc(OC(F)(F)F)c4)n3n2)CC1
In short: as §1

Measured: log2 fold change

RANGAP1 (UniProt P46060)
inactive: [1] 0.008 | [2] -0.003 | [3] 0.008 | [4] 0.031 | [5] 0.004 | [6] 0.051 | [7] 0.098 | [8] 0.033 | [9] -0.014 | [10] 0.055 | [11] -0.052 | [12] -0.206 | [13] 0.049 | [14] -0.008 | [15] -0.013 | [16] 0.007 | [17] 0.011 | [18] 0.033 | [19] 0.02 | [20] -0.039

RBM12 (UniProt Q9NTZ6)
active: [12] -0.437
inactive: [1] 0.016 | [2] -0.101 | [3] 0.057 | [4] 0.116 | [5] -0.085 | [6] 0.058 | [7] 0.136 | [8] 0.008 | [9] 0.062 | [10] 0.122 | [11] -0.181 | [13] 0.114 | [14] 0.087 | [16] -0.049 | [17] 0.053 | [19] -0.033 | [20] -0.139

RBM26 isoform 2 (UniProt Q5T8P6)
inactive: [1] 0.122 | [2] -0.088 | [3] 0.033 | [4] 0.116 | [5] -0.184 | [6] 0.143 | [7] 0.09 | [8] -0.014 | [9] 0.097 | [10] 0.079 | [11] -0.207 | [12] -0.299 | [13] 0.151 | [14] 0.098 | [16] -0.069 | [17] 0.072 | [19] -0.011 | [20] -0.177

RAB11B (UniProt Q15907)
inactive: [1] -0.033 | [2] 0.004 | [3] -0.021 | [4] -0.012 | [5] -0.008 | [6] -0.028 | [7] -0.039 | [8] -0.04 | [9] -0.006 | [10] -0.003 | [11] 0.052 | [12] 0.09 | [13] -0.062 | [14] 0 | [15] 0.03 | [16] 0.022 | [17] -0.062 | [18] -0.042 | [19] -0.035 | [20] 0.047

RAE1 (UniProt P78406)
inactive: [1] 0.018 | [2] 0.002 | [3] -0.003 | [4] 0.009 | [5] 0.106 | [6] 0.046 | [7] 0.085 | [8] 0.089 | [9] -0.224 | [10] -0.006 | [11] 0.046 | [12] -0.067 | [13] 0.105 | [14] -0.031 | [15] -0.08 | [16] 0.043 | [17] 0.046 | [18] -0.026 | [19] 0.126 | [20] -0.101

RAB2B (UniProt Q8WUD1)
inactive: [1] 0.031 | [2] 0.004 | [3] 0.022 | [4] 0.028 | [5] -0.076 | [6] 0.023 | [7] 0.042 | [8] 0.084 | [9] -0.009 | [10] -0.032 | [11] 0.034 | [12] 0.01 | [13] 0.037 | [14] 0.027 | [15] -0.007 | [16] -0.03 | [17] -0.013 | [18] 0.022 | [19] -0.082 | [20] 0.088

2 successive records from above, for reference:
RANGAP1 (UniProt P46060)
inactive: [1] 0.008 | [2] -0.003 | [3] 0.008 | [4] 0.031 | [5] 0.004 | [6] 0.051 | [7] 0.098 | [8] 0.033 | [9] -0.014 | [10] 0.055 | [11] -0.052 | [12] -0.206 | [13] 0.049 | [14] -0.008 | [15] -0.013 | [16] 0.007 | [17] 0.011 | [18] 0.033 | [19] 0.02 | [20] -0.039

RBM12 (UniProt Q9NTZ6)
active: [12] -0.437
inactive: [1] 0.016 | [2] -0.101 | [3] 0.057 | [4] 0.116 | [5] -0.085 | [6] 0.058 | [7] 0.136 | [8] 0.008 | [9] 0.062 | [10] 0.122 | [11] -0.181 | [13] 0.114 | [14] 0.087 | [16] -0.049 | [17] 0.053 | [19] -0.033 | [20] -0.139

(further entries)

RAB3IL1 (UniProt Q8TBN0)
inactive: [1] 0.005 | [2] 0.002 | [3] 0.008 | [4] 0.02 | [5] -0.124 | [6] 0.018 | [7] 0.062 | [8] -0.025 | [9] -0.024 | [10] 0.015 | [11] -0.018 | [12] -0.136 | [13] -0.001 | [14] -0.001 | [16] -0.15 | [17] 0.009 | [19] -0.035 | [20] 0.013

RAD50 isoform 2 (UniProt Q92878)
inactive: [1] 0 | [2] -0.024 | [3] 0.004 | [4] 0.009 | [5] -0.005 | [6] 0.027 | [7] 0.038 | [8] 0.014 | [9] 0.026 | [10] 0.033 | [11] -0.069 | [13] 0.041 | [14] 0.041 | [16] -0.001 | [17] 0.025 | [19] -0.03 | [20] -0.074
active: [12] -0.228

RBM22 (UniProt Q9NW64)
active: [12] -0.3
inactive: [1] -0.049 | [2] 0.031 | [3] -0.056 | [4] -0.014 | [5] 0.052 | [6] 0.003 | [7] -0.004 | [8] -0.038 | [9] 0.018 | [10] -0.006 | [11] -0.027 | [13] 0.002 | [14] -0.009 | [16] 0.061 | [17] -0.058 | [19] 0.011 | [20] -0.003

RARS2 (UniProt Q5T160)
inactive: [1] 0.018 | [2] 0.033 | [3] 0.056 | [4] 0.029 | [5] -0.027 | [6] 0.019 | [7] 0.05 | [8] -0.014 | [9] -0.037 | [10] 0.017 | [11] -0.121 | [13] -0.003 | [14] 0.04 | [16] -0.046 | [17] 0.026 | [19] -0.065 | [20] -0.143
active: [12] -0.238

RAMAC (UniProt Q9BTL3)
inactive: [1] 0.01 | [2] 0.045 | [3] -0.083 | [4] 0.017 | [5] 0.032 | [6] 0.03 | [7] -0.063 | [8] -0.018 | [9] 0.041 | [10] -0.043 | [11] 0.183 | [12] 0.215 | [13] -0.067 | [14] -0.086 | [15] 0.016 | [16] 0.11 | [17] -0.032 | [18] -0.045 | [19] 0.097 | [20] 0.202

RBM17 (UniProt Q96I25)
inactive: [1] -0.004 | [2] -0.036 | [3] 0.057 | [4] 0.012 | [5] 0.007 | [6] 0.068 | [7] 0.118 | [8] 0.013 | [9] 0.028 | [10] 0.043 | [11] -0.08 | [13] 0.085 | [14] 0.066 | [16] -0.059 | [17] 0.048 | [19] 0.088 | [20] -0.037
active: [12] -0.422

RAB11FIP1 (UniProt Q6WKZ4)
inactive: [1] -0.009 | [2] 0.001 | [3] 0.015 | [4] -0.018 | [5] 0.034 | [6] 0.006 | [7] 0.063 | [8] 0.009 | [9] 0.015 | [10] 0.014 | [11] -0.07 | [12] -0.105 | [13] 0.023 | [14] 0.122 | [16] -0.063 | [17] 0.021 | [19] -0.017
active: [20] -0.373

RANBP1 (UniProt P43487)
inactive: [1] 0.009 | [2] 0.022 | [3] 0.017 | [4] 0.102 | [5] -0.106 | [6] 0.002 | [7] 0 | [8] 0.024 | [9] -0.013 | [10] 0.015 | [11] -0.022 | [12] 0.078 | [13] -0.013 | [14] 0.025 | [15] 0.005 | [16] -0.012 | [17] -0.011 | [18] 0.002 | [19] -0.01 | [20] -0.043

RAB4B isoform 2 (UniProt P61018)
inactive: [1] -0.008 | [2] 0.032 | [3] 0.02 | [4] 0 | [5] -0.065 | [6] 0.029 | [7] 0.003 | [8] -0.052 | [9] -0.01 | [10] -0.011 | [11] 0.02 | [12] 0.059 | [13] -0.039 | [14] -0.045 | [15] 0.02 | [16] -0.007 | [17] -0.015 | [18] -0.01 | [19] -0.076 | [20] 0.07

RABAC1 (UniProt Q9UI14)
inactive: [1] -0.041 | [2] 0.071 | [3] -0.022 | [4] -0.031 | [5] -0.011 | [6] -0.009 | [7] -0.091 | [8] -0.016 | [9] -0.039 | [10] -0.031 | [11] -0.037 | [12] 0.058 | [13] -0.092 | [14] -0.077 | [15] 0.106 | [16] -0.095 | [17] -0.075 | [18] -0.003 | [19] 0.034 | [20] 0.07

RALGAPA1 isoform 6 (UniProt Q6GYQ0)
inactive: [1] -0.013 | [2] 0.171 | [3] -0.058 | [4] -0.042 | [5] -0.068 | [6] 0.022 | [7] 0.11 | [8] -0.043 | [9] 0.114 | [10] 0.037 | [11] -0.107 | [12] -0.518 | [13] -0.303 | [14] -0.327 | [15] 0.02 | [17] -0.006 | [18] -0.15 | [19] 0.159
